Tested on: C8161 human melanoma xenografts
Experiment: Immunohistochemistry on excised C8161 xenografts (riluzole/MK2206 study)
Assay type: in vivo, mice
Settings: riluzole 10 mg/kg, MK2206 30 mg/kg, or combination at half the dose of each (p<0.001)
From the text: Tissue Analytical Services at the Cancer Institute of New Jersey performed immunohistochemical staining on excised tumor xenografts to detect changes in the number of apoptotic and proliferating cells (activated Caspase 3 and Ki-67, respectively). The number of stained cells was quantified with a Digital Aperio ScanScopeGL system and ImageScope software (v 10.1.3.2028) (Aperio Technologies Inc., Vista, Calif.) according to the manufacturer's protocol.
Excised tumor samples were subjected to immunohistochemistry evaluation with the apoptosis marker, cleaved Caspase-3, and the proliferation index marker, Ki-67.

Nc1nc2ccc(OC(F)(F)F)cc2s1 [riluzole]
number of Ki-67 positive cells: decrease in the number of Ki-67 positive cells
